# Assay results: the supplement of paper PMC8728848
# The list shows a part of the results.
# What was measured:
# Assay in all cases: glycan array binding signal (z-score within array); higher = stronger binding
# Settings in all cases: glycan notation: IUPAC condensed, linker removed
# [1] = target: Fuc(a1-3)[Gal3S(b1-4)]GlcNAc6S
# Summary of the method: (§1)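 The Consortium for Functional Glycomics database supplied 3228 glycan arrays, of which those lacking an available protein sequence were dropped. The binding signal, a within-array Z-score, was averaged across arrays of the same protein sequence and across linkers. Negative scores can be read as non-binding.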
# [2] = target: Fuc(a1-3)[GalNAc(b1-4)]GlcNAc
# Summary of the method: as §1
# [3] = target: Fuc(a1-3)[GalNAc(b1-4)]GlcNAc6S
# Summary of the method: as §1
# [4] = target: Fuc(a1-4)GlcNAc
# Summary of the method: as §1
# [5] = target: Fuc(b1-3)GlcNAc
# Summary of the method: as §1
# [6] = target: Gal(a1-2)Gal
# Summary of the method: as §1
# [7] = target: Gal(a1-3)Gal
# Summary of the method: as §1
# [8] = target: Gal(a1-3)Gal(b1-3)GlcNAc
# Summary of the method: as §1
# [9] = target: Gal(a1-3)Gal(b1-3)GlcNAc(b1-2)Man
# Summary of the method: as §1
# [10] = target: Gal(a1-3)Gal(b1-3)GlcNAc(b1-2)Man(a1-3)[Gal(a1-3)Gal(b1-3)GlcNAc(b1-2)Man(a1-6)]Man(b1-4)GlcNAc(b1-4)GlcNAc
# Summary of the method: as §1
# [11] = target: Gal(a1-3)Gal(b1-3)GlcNAc(b1-3)GalNAc
# Summary of the method: as §1
# [12] = target: Gal(a1-3)Gal(b1-3)GlcNAc(b1-6)GalNAc
# Summary of the method: as §1
# [13] = target: Gal(a1-3)Gal(b1-3)[Fuc(a1-4)]GlcNAc(b1-2)Man(a1-3)[Gal(a1-3)Gal(b1-3)[Fuc(a1-4)]GlcNAc(b1-2)Man(a1-6)]Man(b1-4)GlcNAc(b1-4)GlcNAc
# Summary of the method: as §1
# [14] = target: Gal(a1-3)Gal(b1-4)Glc
# Summary of the method: as §1
# [15] = target: Gal(a1-3)Gal(b1-4)GlcNAc
# Summary of the method: as §1
# [16] = target: Gal(a1-3)Gal(b1-4)GlcNAc(b1-2)Man
# Summary of the method: as §1
# [17] = target: Gal(a1-3)Gal(b1-4)GlcNAc(b1-2)Man(a1-3)[Gal(a1-3)Gal(b1-4)GlcNAc(b1-2)Man(a1-6)]Man(b1-4)GlcNAc(b1-4)GlcNAc
# Summary of the method: as §1
# [18] = target: Gal(a1-3)Gal(b1-4)GlcNAc(b1-3)GalNAc
# Summary of the method: as §1
# [19] = target: Gal(a1-3)Gal(b1-4)GlcNAc(b1-6)GalNAc
# Summary of the method: as §1
# [20] = target: Gal(a1-3)Gal(b1-4)[Fuc(a1-3)]GlcNAc
# Summary of the method: as §1
# [21] = target: Gal(a1-3)Gal(b1-4)[Fuc(a1-3)]GlcNAc(b1-2)Man(a1-3)[Gal(a1-3)Gal(b1-4)[Fuc(a1-3)]GlcNAc(b1-2)Man(a1-6)]Man(b1-4)GlcNAc(b1-4)GlcNAc
# Summary of the method: as §1
# [22] = target: Gal(a1-3)GalNAc
# Summary of the method: as §1
# [23] = target: Gal(a1-3)[Gal(a1-4)]Gal(b1-4)GlcNAc
# Summary of the method: as §1
# [24] = target: Gal(a1-4)Gal(b1-3)GlcNAc(b1-2)Man(a1-3)[Gal(a1-4)Gal(b1-3)GlcNAc(b1-2)Man(a1-6)]Man(b1-4)GlcNAc(b1-4)GlcNAc
# Summary of the method: as §1
# [25] = target: Gal(a1-4)Gal(b1-4)Glc
# Summary of the method: as §1
# [26] = target: Gal(a1-4)Gal(b1-4)GlcNAc
# Summary of the method: as §1
# [27] = target: Gal(a1-4)Gal(b1-4)GlcNAc(b1-2)Man(a1-3)[Gal(a1-4)Gal(b1-4)GlcNAc(b1-2)Man(a1-6)]Man(b1-4)GlcNAc(b1-4)GlcNAc
# Summary of the method: as §1
# [28] = target: Gal(a1-4)Gal(b1-4)GlcNAc(b1-3)Gal(b1-4)Glc
# Summary of the method: as §1
# [29] = target: Gal(a1-4)GlcNAc
# Summary of the method: as §1
# [30] = target: Gal(a1-6)Glc
# Summary of the method: as §1
# [31] = target: Gal(b1-2)Gal
# Summary of the method: as §1
# [32] = target: Gal(b1-3)Gal
# Summary of the method: as §1
# [33] = target: Gal(b1-3)Gal(b1-4)GlcNAc
# Summary of the method: as §1
# [34] = target: Gal(b1-3)GalNAc
# Summary of the method: as §1
# [35] = target: Gal(b1-3)GalNAc(a1-3)[Fuc(a1-2)]Gal(b1-4)Glc
# Summary of the method: as §1
# [36] = target: Gal(b1-3)GalNAc(a1-3)[Fuc(a1-2)]Gal(b1-4)GlcNAc
# Summary of the method: as §1
# [37] = target: Gal(b1-3)GalNAc(b1-3)Gal
# Summary of the method: as §1
# [38] = target: Gal(b1-3)GalNAc(b1-3)Gal(a1-4)Gal(b1-4)Glc
# Summary of the method: as §1
# [39] = target: Gal(b1-3)GalNAc(b1-4)Gal(b1-4)Glc
# Summary of the method: as §1
# [40] = target: Gal(b1-3)GalNAc(b1-4)[Neu5Ac(a2-3)]Gal(b1-4)Glc
# Summary of the method: as §1
# [41] = target: Gal(b1-3)GlcNAc
# Summary of the method: as §1
# [42] = target: Gal(b1-3)GlcNAc(a1-3)Gal(b1-4)GlcNAc
# Summary of the method: as §1
# [43] = target: Gal(b1-3)GlcNAc(a1-6)Gal(b1-4)GlcNAc
# Summary of the method: as §1
# [44] = target: Gal(b1-3)GlcNAc(b1-2)Man
# Summary of the method: as §1
# [45] = target: Gal(b1-3)GlcNAc(b1-2)Man(a1-3)[Gal(b1-3)GlcNAc(b1-2)Man(a1-6)]Man(b1-4)GlcNAc(b1-4)GlcNAc
# Summary of the method: as §1
binder,measurement,setting,value
"Tp0751, 83732 (protein) MSYYHHHHHHLESTSLYKKAGFQHGHVPPRRIPPHDTFGALPTAALPSNARDTAAHPSDTADNTSGSSTTTDPRSHGNAPPAPVGGAAQTHTQPPVQTAMRIALWNRATHGEQGALQHLLAGLWIQTEISPNSGDIHPLLFFDREHAEITFSRASVQEIFLVDSAHTHRKTVSFLTRNTAISSIRRRLEVTFESHEVIHVRAVEDVARLKIGSTSMWDGQYTRYHAGPASAPSP",glycan array binding signal (z-score),[1],0.628
same,glycan array binding signal (z-score),[2],1.32
same,glycan array binding signal (z-score),[3],-0.326
same,glycan array binding signal (z-score),[4],-0.55
same,glycan array binding signal (z-score),[5],-0.739
same,glycan array binding signal (z-score),[6],1.06
same,glycan array binding signal (z-score),[7],-0.242
same,glycan array binding signal (z-score),[8],0.661
same,glycan array binding signal (z-score),[9],-0.003
same,glycan array binding signal (z-score),[10],0.157
same,glycan array binding signal (z-score),[11],0.061
same,glycan array binding signal (z-score),[12],-0.227
same,glycan array binding signal (z-score),[13],0.411
same,glycan array binding signal (z-score),[14],-0.074
same,glycan array binding signal (z-score),[15],-0.348
same,glycan array binding signal (z-score),[16],-0.402
same,glycan array binding signal (z-score),[17],0.262
same,glycan array binding signal (z-score),[18],-0.025
same,glycan array binding signal (z-score),[19],0.534
same,glycan array binding signal (z-score),[20],-0.637
same,glycan array binding signal (z-score),[21],0.606
same,glycan array binding signal (z-score),[22],-0.017
same,glycan array binding signal (z-score),[23],0.497
same,glycan array binding signal (z-score),[24],-0.188
same,glycan array binding signal (z-score),[25],-0.364
same,glycan array binding signal (z-score),[26],0.255
same,glycan array binding signal (z-score),[27],0.305
same,glycan array binding signal (z-score),[28],-0.075
same,glycan array binding signal (z-score),[29],0.005
same,glycan array binding signal (z-score),[30],-0.113
same,glycan array binding signal (z-score),[31],2.31
same,glycan array binding signal (z-score),[32],0.017
same,glycan array binding signal (z-score),[33],-0.423
same,glycan array binding signal (z-score),[34],-0.193
same,glycan array binding signal (z-score),[35],-0.352
same,glycan array binding signal (z-score),[36],-0.541
same,glycan array binding signal (z-score),[37],-0.75
same,glycan array binding signal (z-score),[38],-0.679
same,glycan array binding signal (z-score),[39],-0.667
same,glycan array binding signal (z-score),[40],-0.127
same,glycan array binding signal (z-score),[41],-0.323
same,glycan array binding signal (z-score),[42],-0.151
same,glycan array binding signal (z-score),[43],-0.141
same,glycan array binding signal (z-score),[44],-0.234
same,glycan array binding signal (z-score),[45],-0.278
